The list shows a part of the results.
How the values were obtained:
Assay in all cases: log2 fold change, soluble protein after heating vs DMSO (PISA); higher = thermal stabilisation; K562 cells, 10 uM, 30 min; active = over 0.2 and 3.5 SD of the protein, either way, in both replicates (recomputed)
[1] = compound: CC[C@@H]1C(=O)N(C)c2cnc(Nc3ccc(C(=O)NC4CCN(C)CC4)cc3OC)nc2N1C1CCCC1
How it was run: (§1)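 Thermal stability values are relative to control samples and come from duplicates. They are expressed as log2 fold changes. For measurement, K562 cells (2×10^6 cells/mL) received 10 μM compound for 30 min, and aliquots were heated for 3 min over 48°C-58°C, pooled, and extracted at 4°C in PBS with 0.5% NP-40. Soluble protein, the supernatant after 21,000xg for 90 min, was quantified by TMTpro 16plex LC-MS/MS with equalised channel sums.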

By UniProt entry, the sequences of proteins in these tests, tags left out. Where a name states a change or a piece, a line headed by the entry shows the natural chain unless it says otherwise.
UniProt Q9BTV4: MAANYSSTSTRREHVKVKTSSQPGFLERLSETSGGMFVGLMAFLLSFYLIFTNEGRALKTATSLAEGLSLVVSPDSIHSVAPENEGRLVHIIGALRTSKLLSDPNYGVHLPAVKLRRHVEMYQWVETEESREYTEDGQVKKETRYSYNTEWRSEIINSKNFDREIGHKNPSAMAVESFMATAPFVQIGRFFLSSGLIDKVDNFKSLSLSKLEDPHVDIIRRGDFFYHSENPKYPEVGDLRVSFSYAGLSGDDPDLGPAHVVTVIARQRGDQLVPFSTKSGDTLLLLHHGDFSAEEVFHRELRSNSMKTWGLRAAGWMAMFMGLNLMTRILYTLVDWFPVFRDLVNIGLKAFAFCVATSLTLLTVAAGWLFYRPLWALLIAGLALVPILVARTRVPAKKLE
UniProt Q96B77: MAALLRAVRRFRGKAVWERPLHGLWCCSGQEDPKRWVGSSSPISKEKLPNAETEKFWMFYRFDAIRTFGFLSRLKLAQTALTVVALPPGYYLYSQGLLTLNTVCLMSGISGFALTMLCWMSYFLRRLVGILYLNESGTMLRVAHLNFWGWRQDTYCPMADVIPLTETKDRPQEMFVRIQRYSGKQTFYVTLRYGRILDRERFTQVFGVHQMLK
UniProt Q6ZXV5: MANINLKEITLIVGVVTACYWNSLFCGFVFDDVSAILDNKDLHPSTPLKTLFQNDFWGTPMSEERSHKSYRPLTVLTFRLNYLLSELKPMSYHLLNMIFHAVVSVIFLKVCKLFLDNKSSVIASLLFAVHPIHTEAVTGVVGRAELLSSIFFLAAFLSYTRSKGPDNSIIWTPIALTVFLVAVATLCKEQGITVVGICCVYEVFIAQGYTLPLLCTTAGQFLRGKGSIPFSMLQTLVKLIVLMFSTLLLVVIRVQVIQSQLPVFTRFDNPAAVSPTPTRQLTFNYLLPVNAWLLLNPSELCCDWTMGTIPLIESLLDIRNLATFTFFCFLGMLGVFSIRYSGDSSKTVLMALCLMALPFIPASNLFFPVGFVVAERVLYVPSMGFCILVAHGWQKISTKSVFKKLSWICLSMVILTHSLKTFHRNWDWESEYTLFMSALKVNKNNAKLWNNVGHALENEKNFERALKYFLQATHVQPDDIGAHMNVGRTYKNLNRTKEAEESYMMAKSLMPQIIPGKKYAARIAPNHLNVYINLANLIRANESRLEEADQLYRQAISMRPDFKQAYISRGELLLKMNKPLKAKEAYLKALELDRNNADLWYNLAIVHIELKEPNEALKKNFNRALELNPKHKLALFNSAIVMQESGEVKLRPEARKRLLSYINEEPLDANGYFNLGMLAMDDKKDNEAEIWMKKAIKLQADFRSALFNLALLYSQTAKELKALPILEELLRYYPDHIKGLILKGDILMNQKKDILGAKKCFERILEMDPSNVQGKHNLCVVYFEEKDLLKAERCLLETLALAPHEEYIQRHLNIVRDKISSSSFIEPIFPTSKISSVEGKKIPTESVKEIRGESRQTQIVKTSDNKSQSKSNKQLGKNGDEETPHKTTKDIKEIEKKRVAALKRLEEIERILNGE
UniProt P42166: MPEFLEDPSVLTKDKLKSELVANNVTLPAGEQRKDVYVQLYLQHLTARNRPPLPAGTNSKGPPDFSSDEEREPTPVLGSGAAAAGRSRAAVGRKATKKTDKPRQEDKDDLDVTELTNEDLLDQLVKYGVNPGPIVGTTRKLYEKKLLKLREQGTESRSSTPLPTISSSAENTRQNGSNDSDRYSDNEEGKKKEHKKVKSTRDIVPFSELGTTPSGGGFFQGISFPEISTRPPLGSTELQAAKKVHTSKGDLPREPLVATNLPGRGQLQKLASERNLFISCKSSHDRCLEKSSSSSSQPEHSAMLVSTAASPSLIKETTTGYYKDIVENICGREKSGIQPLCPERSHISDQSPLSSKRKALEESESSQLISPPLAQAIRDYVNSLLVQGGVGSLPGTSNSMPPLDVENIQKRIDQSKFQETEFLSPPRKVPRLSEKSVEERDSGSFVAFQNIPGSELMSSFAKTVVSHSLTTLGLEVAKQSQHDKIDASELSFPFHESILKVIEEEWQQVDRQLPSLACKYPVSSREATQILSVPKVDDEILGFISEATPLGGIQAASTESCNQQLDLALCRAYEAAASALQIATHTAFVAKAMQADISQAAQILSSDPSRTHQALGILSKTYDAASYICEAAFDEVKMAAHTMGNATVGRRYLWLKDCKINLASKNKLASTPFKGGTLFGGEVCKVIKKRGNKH
UniProt Q9NV96: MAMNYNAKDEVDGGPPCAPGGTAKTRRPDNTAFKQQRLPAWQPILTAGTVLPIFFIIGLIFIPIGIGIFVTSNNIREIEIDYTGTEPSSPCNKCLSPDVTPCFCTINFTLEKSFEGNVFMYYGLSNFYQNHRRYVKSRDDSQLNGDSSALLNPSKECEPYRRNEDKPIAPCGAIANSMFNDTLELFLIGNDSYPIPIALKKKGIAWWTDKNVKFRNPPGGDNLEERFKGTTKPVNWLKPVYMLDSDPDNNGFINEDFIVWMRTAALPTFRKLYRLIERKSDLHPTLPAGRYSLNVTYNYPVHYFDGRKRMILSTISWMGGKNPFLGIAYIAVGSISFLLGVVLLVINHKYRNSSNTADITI
UniProt P42167: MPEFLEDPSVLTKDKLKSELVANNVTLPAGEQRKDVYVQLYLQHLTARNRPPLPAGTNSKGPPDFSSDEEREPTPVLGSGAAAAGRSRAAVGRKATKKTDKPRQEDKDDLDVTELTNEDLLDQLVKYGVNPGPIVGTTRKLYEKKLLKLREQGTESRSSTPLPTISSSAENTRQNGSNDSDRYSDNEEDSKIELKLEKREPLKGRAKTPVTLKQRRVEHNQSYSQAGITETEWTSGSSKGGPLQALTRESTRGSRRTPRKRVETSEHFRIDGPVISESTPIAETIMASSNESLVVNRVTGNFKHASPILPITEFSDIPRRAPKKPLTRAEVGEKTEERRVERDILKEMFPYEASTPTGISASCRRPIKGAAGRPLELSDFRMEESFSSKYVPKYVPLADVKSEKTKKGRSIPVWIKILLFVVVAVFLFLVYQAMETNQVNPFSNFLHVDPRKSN
UniProt Q9P0T7: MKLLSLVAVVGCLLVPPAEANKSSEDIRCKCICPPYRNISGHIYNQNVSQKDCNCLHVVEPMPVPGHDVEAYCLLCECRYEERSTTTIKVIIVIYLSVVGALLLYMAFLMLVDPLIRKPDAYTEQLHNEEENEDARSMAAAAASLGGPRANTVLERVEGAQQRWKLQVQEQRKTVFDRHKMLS
UniProt P55061, whole entry, looked up: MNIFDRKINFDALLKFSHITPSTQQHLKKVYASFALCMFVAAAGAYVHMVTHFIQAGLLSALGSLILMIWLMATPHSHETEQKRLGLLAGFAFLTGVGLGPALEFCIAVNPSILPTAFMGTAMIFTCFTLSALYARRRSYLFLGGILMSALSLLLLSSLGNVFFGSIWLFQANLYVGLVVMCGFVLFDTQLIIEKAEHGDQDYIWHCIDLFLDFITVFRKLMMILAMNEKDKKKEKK
UniProt Q5U3C3: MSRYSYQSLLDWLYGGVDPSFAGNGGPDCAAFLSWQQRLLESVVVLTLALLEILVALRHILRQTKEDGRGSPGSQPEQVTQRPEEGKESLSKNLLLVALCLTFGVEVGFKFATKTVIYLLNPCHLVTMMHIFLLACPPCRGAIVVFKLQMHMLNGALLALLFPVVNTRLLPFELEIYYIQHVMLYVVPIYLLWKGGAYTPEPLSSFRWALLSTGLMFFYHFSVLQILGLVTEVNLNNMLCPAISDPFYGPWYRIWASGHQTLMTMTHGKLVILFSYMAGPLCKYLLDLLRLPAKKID
UniProt Q8IUX1: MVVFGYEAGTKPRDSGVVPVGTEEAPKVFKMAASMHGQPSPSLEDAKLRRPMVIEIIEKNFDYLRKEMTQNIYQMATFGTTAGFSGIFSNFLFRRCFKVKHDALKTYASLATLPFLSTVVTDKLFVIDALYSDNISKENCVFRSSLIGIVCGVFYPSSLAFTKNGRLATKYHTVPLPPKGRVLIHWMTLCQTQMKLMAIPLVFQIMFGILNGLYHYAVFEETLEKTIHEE
UniProt Q96HV5: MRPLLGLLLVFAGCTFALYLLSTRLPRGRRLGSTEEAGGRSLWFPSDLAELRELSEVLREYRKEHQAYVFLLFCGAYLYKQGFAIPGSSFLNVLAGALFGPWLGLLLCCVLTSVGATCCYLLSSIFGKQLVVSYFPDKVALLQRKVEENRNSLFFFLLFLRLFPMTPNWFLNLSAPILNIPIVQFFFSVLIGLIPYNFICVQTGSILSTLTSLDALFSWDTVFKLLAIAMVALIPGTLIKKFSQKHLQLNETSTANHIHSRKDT
UniProt Q86UE8, whole entry, looked up: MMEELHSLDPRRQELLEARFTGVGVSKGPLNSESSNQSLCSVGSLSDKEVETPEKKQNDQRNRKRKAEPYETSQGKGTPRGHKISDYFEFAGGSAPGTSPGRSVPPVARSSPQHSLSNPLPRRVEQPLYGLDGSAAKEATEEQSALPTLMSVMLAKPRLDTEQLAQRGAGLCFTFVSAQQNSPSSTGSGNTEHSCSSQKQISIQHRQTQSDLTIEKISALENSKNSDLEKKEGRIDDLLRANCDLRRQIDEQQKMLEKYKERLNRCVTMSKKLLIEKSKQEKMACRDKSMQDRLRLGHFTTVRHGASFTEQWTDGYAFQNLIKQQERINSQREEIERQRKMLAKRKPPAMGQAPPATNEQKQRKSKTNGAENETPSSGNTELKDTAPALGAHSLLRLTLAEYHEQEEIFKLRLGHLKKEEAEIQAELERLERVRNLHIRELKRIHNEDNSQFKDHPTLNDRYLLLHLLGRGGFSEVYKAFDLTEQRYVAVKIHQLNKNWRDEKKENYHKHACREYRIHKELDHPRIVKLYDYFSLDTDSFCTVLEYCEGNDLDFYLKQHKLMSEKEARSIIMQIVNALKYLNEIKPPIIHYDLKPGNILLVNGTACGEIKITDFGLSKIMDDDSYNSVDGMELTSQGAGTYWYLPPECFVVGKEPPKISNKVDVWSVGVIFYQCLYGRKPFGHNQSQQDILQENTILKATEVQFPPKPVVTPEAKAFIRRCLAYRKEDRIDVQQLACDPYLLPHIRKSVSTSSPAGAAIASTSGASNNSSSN
UniProt Q08117: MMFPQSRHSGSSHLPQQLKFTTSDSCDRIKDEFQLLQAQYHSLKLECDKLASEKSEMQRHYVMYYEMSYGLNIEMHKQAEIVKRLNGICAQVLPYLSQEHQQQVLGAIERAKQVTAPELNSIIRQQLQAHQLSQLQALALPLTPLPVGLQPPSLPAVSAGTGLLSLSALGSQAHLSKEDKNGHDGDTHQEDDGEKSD
UniProt Q99805: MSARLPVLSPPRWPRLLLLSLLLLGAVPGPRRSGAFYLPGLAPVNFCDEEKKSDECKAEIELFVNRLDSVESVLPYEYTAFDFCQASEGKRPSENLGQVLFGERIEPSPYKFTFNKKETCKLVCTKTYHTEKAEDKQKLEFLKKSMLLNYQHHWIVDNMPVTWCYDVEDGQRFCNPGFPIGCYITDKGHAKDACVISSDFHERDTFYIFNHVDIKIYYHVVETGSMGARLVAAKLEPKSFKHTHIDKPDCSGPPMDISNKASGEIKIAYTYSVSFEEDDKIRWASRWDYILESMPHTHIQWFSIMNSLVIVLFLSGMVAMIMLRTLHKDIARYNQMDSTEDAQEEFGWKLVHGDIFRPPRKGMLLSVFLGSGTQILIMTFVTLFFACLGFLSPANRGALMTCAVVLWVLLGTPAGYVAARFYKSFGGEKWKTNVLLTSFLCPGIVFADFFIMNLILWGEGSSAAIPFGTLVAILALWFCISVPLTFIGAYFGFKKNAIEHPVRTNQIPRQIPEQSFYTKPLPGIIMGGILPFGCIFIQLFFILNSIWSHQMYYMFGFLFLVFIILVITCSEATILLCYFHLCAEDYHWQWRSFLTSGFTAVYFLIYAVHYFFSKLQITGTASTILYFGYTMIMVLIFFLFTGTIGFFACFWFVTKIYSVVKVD
UniProt Q96I45: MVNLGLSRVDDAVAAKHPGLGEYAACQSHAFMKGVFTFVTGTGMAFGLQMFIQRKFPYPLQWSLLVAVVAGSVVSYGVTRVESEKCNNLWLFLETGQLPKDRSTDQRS
UniProt A0PJW6: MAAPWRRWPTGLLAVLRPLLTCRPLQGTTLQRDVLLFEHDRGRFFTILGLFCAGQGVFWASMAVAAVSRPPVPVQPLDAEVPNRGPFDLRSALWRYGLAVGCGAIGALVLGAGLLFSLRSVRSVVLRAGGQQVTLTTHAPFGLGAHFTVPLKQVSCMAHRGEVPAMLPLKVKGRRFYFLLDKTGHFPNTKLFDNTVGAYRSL
UniProt Q53S58: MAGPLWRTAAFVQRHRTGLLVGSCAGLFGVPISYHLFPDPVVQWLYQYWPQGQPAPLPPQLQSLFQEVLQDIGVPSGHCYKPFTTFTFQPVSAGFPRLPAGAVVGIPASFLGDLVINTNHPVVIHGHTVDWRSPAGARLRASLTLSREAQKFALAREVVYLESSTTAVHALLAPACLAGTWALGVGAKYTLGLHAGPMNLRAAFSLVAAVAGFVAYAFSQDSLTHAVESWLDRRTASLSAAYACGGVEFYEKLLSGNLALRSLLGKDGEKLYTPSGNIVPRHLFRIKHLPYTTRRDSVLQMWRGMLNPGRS

volasertib = compound: CC[C@@H]1C(=O)N(C)c2cnc(Nc3ccc(C(=O)N[C@H]4CC[C@H](N5CCN(CC6CC6)CC5)CC4)cc3OC)nc2N1C(C)C [volasertib]
How it was run: as §1

[2] = compound: CC[C@H](C)N1C=C(C2=C(C=C(C=C21)C3=CN=C(C=C3)N4CCNCC4)C(=O)NCC5=C(C=C(NC5=O)C)C)C
How it was run: as §1

epoxomicin = compound: CC[C@H](C)[C@@H](C(=O)N[C@@H]([C@@H](C)O)C(=O)N[C@@H](CC(C)C)C(=O)[C@]1(CO1)C)NC(=O)[C@H]([C@@H](C)CC)N(C)C(=O)C [epoxomicin]
How it was run: as §1

[3] = compound: CCn1c(C(=O)N(C2CC2)C2CC2)cc2c3c(ncn3C)c(Nc3cc(C)n(C)n3)nc21
How it was run: as §1

[4] = compound: CCn1cc(-c2ccnc3[nH]c(-c4cccc(CN(C)C)c4)cc23)c(-c2ccc(NC(=O)N(C)C)cc2)n1
How it was run: as §1

[5] = compound: CN(C)CC(=O)Nc1ccc2[nH]c(=O)c3ccccc3c2c1
How it was run: as §1

rosiglitazone = compound: CN(CCOC1=CC=C(C=C1)C[C@H]2C(=O)NC(=O)S2)C3=CC=CC=N3 (racemic) [rosiglitazone]
How it was run: as §1

[6] = compound: CN1C2=C(C3=C1C(=O)N(N=C3)CC4=CC(=CC=C4)N)SC(=C2)S(=O)C
How it was run: as §1

[7] = compound: CN1CCC(CNc2ccc3ncc(-c4cccc(OC(F)(F)F)c4)n3n2)CC1
How it was run: as §1

| Target | log2 fold change [1] | log2 fold change (volasertib) | log2 fold change [2] | log2 fold change (epoxomicin) | log2 fold change [3] | log2 fold change [4] | log2 fold change [5] | log2 fold change (rosiglitazone) | log2 fold change [6] | log2 fold change [7] |
| --- | --- | --- | --- | --- | --- | --- | --- | --- | --- | --- |
| TMEM135 (UniProt Q86UB9) | inactive: 0.087 | inactive: -0.042 | inactive: -0.013 | inactive: 0.025 | inactive: -0.03 | inactive: 0.071 | inactive: -0.02 | inactive: -0.033 | inactive: -0.034 | inactive: 0.08 |
| TMEM173 (UniProt Q86WV6) | inactive: 0.219 | inactive: 0.156 | inactive: 0.086 | inactive: 0.026 |  | inactive: -0.017 | inactive: 0.032 |  | inactive: -0.049 | active: 0.293 |
| TMEM43 (UniProt Q9BTV4) | inactive: 0 | inactive: -0.018 | inactive: 0.013 | inactive: -0.007 | inactive: 0.016 | inactive: -0.019 | inactive: -0.012 | inactive: -0.008 | inactive: 0.001 | inactive: 0.005 |
| TMEM186 (UniProt Q96B77) | inactive: 0.05 | inactive: 0.146 | inactive: 0.055 | inactive: -0.017 | inactive: 0 |  | inactive: 0.046 | inactive: 0.045 | inactive: 0.01 |  |
| TMEM242 (UniProt Q9NWH2) | inactive: 0.052 | inactive: 0.05 | inactive: -0.066 | inactive: 0.11 | inactive: 0.025 | inactive: 0.028 | inactive: 0.089 | inactive: -0.061 | inactive: -0.079 | inactive: 0.031 |
| TMTC3 (UniProt Q6ZXV5) | inactive: -0.074 | inactive: -0.118 | inactive: 0.023 | inactive: 0.001 |  | inactive: 0.038 | inactive: -0.045 |  | inactive: -0.014 | inactive: -0.034 |
| TMPO (UniProt P42166) | inactive: -0.078 | inactive: -0.11 | inactive: 0.034 | inactive: 0.05 | inactive: -0.068 | inactive: 0.028 | inactive: -0.025 | inactive: 0 | inactive: -0.017 | inactive: -0.054 |
| TNFRSF10B (UniProt O14763) | inactive: 0.014 | inactive: -0.017 | inactive: -0.212 | inactive: -0.008 | inactive: -0.013 | inactive: -0.018 | inactive: -0.133 | inactive: -0.031 | inactive: -0.112 | inactive: 0.064 |
| TMEM30A (UniProt Q9NV96) | inactive: 0.04 | inactive: 0.039 | inactive: -0.035 | inactive: -0.009 | inactive: 0.007 | inactive: -0.015 | inactive: -0.063 | inactive: 0.015 | inactive: -0.018 | inactive: 0.012 |
| TMPO isoform 2 (UniProt P42167) | inactive: 0.021 | inactive: 0.099 | inactive: 0.008 | inactive: -0.03 | inactive: 0.103 | inactive: -0.156 | inactive: -0.087 | inactive: 0.026 | inactive: -0.038 | inactive: -0.069 |
| TMEM167B (UniProt Q9NRX6) | inactive: 0.031 | inactive: 0.177 | inactive: -0.083 |  | inactive: -0.048 | inactive: 0.004 | inactive: -0.03 | inactive: -0.009 | inactive: 0.133 | inactive: 0.076 |
| TMEM9 (UniProt Q9P0T7) | inactive: -0.112 | inactive: -0.07 | inactive: -0.05 | active: 0.296 |  | inactive: 0.015 | inactive: 0.004 |  | inactive: -0.015 | inactive: -0.007 |
| TMEM214 (UniProt Q6NUQ4) | inactive: -0.023 | active: -0.246 | inactive: 0.075 | inactive: 0.032 |  | inactive: -0.023 | inactive: 0.008 |  | inactive: 0.004 | inactive: 0.148 |
| TMBIM6 isoform 2 (UniProt P55061) | inactive: -0.075 | inactive: -0.061 | inactive: -0.041 | inactive: 0.25 |  |  | inactive: 0.066 |  | inactive: -0.007 |  |
| TMEM164 (UniProt Q5U3C3) | inactive: -0.01 | inactive: -0.145 | inactive: -0.01 | inactive: 0.082 |  | inactive: -0.053 | inactive: 0.07 |  | inactive: -0.001 | inactive: -0.021 |
| TMEM126B (UniProt Q8IUX1) | inactive: -0.038 |  | inactive: 0.018 | inactive: -0.025 | inactive: 0 | inactive: -0.006 | inactive: -0.008 | inactive: -0.03 | inactive: 0.069 | inactive: -0.12 |

| Target | log2 fold change [1] | log2 fold change (volasertib) | log2 fold change [2] | log2 fold change (epoxomicin) | log2 fold change [3] | log2 fold change [4] | log2 fold change [5] | log2 fold change (rosiglitazone) | log2 fold change [6] | log2 fold change [7] |
| --- | --- | --- | --- | --- | --- | --- | --- | --- | --- | --- |
| TMEM63B (UniProt Q5T3F8) | inactive: -0.001 | inactive: 0.071 | inactive: -0.019 | inactive: 0.039 |  | inactive: 0.011 | inactive: -0.052 |  | inactive: 0.042 | inactive: -0.073 |
| TMEM120A (UniProt Q9BXJ8) | inactive: 0.127 | inactive: -0.053 | inactive: 0.119 | inactive: 0.198 |  | inactive: -0.128 | inactive: 0.015 |  | inactive: -0.061 | inactive: 0.07 |
| TMEM14C (UniProt Q9P0S9) | inactive: 0.021 | inactive: 0.16 | inactive: -0.033 |  | inactive: 0.098 | inactive: -0.06 | inactive: 0.105 | inactive: -0.015 | inactive: -0.118 | inactive: 0.021 |
| TMEM41A (UniProt Q96HV5) | inactive: 0.036 | inactive: 0.035 | inactive: -0.05 | inactive: -0.055 |  | inactive: 0.165 | inactive: -0.049 |  | inactive: 0 | inactive: 0.01 |
| TMEM268 isoform 3 (UniProt Q5VZI3) | inactive: -0.088 | inactive: -0.005 | inactive: 0.112 | active: 0.536 |  | inactive: 0.013 |  |  | inactive: 0.025 | inactive: -0.123 |
| TLK2 isoform 2 (UniProt Q86UE8) | inactive: -0.015 | inactive: -0.112 | inactive: 0.029 | inactive: -0.01 |  | inactive: -0.024 | inactive: -0.012 |  | inactive: -0.039 | inactive: -0.054 |
| TMEM128 (UniProt Q5BJH2) | inactive: -0.076 | inactive: -0.005 | inactive: 0.015 | inactive: 0.003 |  |  | inactive: 0.149 |  | inactive: -0.033 |  |
| TLE5 isoform 2 (UniProt Q08117) | inactive: 0.092 | inactive: 0.022 | inactive: -0.028 |  |  | inactive: 0.017 | inactive: -0.015 |  | inactive: -0.063 | inactive: 0.092 |
| TMEM101 (UniProt Q96IK0) | inactive: 0.033 | inactive: 0.041 | inactive: 0.106 |  | inactive: 0.03 | inactive: -0.036 | inactive: 0.004 | inactive: 0.013 | inactive: -0.058 | inactive: -0.156 |
| TNFRSF10A (UniProt O00220) | inactive: 0.046 | inactive: 0.001 | inactive: -0.02 | inactive: -0.047 |  | inactive: -0.104 | inactive: -0.123 |  | inactive: -0.02 | inactive: -0.007 |
| TM9SF2 (UniProt Q99805) | active: -0.57 | active: -0.621 | inactive: -0.008 | inactive: -0.034 |  | inactive: -0.017 | inactive: 0.018 |  | inactive: -0.01 | inactive: -0.182 |
| TMEM141 (UniProt Q96I45) | inactive: 0.001 | inactive: 0.077 | inactive: -0.017 |  | inactive: -0.006 | inactive: -0.166 | inactive: 0.031 | inactive: -0.038 | inactive: 0.092 | inactive: -0.195 |
| TMBIM1 (UniProt Q969X1) | inactive: 0.086 | inactive: 0.002 | inactive: -0.014 | inactive: -0.033 |  | inactive: 0.044 | inactive: 0.029 |  | inactive: -0.035 | inactive: -0.03 |
| TMEM223 (UniProt A0PJW6) | inactive: -0.004 | inactive: 0.043 | inactive: 0.035 | inactive: -0.01 |  | inactive: 0.022 | inactive: -0.015 |  | inactive: -0.022 | active: -0.271 |
| TMEM175 (UniProt Q9BSA9) | inactive: 0.128 | inactive: 0.152 |  |  | inactive: 0.039 |  |  |  | inactive: -0.013 |  |
| TMEM177 (UniProt Q53S58) | inactive: -0.092 | inactive: 0.051 | inactive: 0.047 | inactive: -0.052 |  | inactive: 0.048 | inactive: 0.219 |  | inactive: -0.103 | inactive: -0.075 |

Reference: the supplement of paper PMC10849652
